In paper PMC10653872 one finds binding data, which are given here for four molecules.

By UniProt entry, the sequences of proteins in these tests, tags left out.
UniProt P06428: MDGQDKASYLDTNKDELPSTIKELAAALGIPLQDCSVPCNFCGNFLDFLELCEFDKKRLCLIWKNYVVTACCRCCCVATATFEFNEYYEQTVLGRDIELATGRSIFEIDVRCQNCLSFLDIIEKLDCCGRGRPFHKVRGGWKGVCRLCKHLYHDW
UniProt Q86UU0: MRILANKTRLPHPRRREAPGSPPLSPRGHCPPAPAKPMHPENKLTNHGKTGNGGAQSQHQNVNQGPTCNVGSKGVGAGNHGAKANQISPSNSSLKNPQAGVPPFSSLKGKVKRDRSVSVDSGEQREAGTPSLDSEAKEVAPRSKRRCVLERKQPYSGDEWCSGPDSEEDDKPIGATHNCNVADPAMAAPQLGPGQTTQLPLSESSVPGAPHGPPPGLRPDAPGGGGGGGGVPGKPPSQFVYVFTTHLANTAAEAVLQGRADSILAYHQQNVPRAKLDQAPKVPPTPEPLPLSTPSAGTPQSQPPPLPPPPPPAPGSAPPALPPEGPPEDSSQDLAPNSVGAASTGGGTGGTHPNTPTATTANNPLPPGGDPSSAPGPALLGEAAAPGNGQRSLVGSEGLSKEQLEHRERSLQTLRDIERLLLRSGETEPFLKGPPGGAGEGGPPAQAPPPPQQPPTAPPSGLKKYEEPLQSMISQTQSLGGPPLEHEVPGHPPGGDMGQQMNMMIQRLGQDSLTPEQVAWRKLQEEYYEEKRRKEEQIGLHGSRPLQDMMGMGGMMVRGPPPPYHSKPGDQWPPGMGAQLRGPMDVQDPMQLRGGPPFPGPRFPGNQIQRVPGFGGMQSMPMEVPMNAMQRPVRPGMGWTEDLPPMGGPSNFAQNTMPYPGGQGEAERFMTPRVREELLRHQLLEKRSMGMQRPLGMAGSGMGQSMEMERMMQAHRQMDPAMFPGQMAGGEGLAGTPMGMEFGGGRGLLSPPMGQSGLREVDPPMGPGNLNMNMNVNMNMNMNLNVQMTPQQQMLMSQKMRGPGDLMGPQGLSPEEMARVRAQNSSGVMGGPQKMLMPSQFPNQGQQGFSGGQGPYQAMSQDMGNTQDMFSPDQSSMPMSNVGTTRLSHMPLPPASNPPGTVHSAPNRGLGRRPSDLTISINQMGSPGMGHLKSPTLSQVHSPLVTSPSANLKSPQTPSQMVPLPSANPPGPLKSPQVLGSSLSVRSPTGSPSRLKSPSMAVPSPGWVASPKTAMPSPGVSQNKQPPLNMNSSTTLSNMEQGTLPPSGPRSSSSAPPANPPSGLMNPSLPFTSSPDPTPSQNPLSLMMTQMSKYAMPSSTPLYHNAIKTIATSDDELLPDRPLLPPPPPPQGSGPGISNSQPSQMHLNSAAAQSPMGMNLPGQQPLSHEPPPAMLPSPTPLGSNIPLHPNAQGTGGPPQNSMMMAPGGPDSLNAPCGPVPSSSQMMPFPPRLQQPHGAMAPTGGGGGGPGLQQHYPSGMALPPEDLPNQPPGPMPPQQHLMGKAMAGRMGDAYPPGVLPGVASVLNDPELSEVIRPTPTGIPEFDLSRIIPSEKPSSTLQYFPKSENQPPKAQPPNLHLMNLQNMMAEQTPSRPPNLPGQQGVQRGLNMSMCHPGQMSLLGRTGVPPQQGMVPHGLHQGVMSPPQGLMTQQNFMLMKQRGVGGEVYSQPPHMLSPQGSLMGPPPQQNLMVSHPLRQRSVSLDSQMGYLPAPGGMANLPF
UniProt Q92793: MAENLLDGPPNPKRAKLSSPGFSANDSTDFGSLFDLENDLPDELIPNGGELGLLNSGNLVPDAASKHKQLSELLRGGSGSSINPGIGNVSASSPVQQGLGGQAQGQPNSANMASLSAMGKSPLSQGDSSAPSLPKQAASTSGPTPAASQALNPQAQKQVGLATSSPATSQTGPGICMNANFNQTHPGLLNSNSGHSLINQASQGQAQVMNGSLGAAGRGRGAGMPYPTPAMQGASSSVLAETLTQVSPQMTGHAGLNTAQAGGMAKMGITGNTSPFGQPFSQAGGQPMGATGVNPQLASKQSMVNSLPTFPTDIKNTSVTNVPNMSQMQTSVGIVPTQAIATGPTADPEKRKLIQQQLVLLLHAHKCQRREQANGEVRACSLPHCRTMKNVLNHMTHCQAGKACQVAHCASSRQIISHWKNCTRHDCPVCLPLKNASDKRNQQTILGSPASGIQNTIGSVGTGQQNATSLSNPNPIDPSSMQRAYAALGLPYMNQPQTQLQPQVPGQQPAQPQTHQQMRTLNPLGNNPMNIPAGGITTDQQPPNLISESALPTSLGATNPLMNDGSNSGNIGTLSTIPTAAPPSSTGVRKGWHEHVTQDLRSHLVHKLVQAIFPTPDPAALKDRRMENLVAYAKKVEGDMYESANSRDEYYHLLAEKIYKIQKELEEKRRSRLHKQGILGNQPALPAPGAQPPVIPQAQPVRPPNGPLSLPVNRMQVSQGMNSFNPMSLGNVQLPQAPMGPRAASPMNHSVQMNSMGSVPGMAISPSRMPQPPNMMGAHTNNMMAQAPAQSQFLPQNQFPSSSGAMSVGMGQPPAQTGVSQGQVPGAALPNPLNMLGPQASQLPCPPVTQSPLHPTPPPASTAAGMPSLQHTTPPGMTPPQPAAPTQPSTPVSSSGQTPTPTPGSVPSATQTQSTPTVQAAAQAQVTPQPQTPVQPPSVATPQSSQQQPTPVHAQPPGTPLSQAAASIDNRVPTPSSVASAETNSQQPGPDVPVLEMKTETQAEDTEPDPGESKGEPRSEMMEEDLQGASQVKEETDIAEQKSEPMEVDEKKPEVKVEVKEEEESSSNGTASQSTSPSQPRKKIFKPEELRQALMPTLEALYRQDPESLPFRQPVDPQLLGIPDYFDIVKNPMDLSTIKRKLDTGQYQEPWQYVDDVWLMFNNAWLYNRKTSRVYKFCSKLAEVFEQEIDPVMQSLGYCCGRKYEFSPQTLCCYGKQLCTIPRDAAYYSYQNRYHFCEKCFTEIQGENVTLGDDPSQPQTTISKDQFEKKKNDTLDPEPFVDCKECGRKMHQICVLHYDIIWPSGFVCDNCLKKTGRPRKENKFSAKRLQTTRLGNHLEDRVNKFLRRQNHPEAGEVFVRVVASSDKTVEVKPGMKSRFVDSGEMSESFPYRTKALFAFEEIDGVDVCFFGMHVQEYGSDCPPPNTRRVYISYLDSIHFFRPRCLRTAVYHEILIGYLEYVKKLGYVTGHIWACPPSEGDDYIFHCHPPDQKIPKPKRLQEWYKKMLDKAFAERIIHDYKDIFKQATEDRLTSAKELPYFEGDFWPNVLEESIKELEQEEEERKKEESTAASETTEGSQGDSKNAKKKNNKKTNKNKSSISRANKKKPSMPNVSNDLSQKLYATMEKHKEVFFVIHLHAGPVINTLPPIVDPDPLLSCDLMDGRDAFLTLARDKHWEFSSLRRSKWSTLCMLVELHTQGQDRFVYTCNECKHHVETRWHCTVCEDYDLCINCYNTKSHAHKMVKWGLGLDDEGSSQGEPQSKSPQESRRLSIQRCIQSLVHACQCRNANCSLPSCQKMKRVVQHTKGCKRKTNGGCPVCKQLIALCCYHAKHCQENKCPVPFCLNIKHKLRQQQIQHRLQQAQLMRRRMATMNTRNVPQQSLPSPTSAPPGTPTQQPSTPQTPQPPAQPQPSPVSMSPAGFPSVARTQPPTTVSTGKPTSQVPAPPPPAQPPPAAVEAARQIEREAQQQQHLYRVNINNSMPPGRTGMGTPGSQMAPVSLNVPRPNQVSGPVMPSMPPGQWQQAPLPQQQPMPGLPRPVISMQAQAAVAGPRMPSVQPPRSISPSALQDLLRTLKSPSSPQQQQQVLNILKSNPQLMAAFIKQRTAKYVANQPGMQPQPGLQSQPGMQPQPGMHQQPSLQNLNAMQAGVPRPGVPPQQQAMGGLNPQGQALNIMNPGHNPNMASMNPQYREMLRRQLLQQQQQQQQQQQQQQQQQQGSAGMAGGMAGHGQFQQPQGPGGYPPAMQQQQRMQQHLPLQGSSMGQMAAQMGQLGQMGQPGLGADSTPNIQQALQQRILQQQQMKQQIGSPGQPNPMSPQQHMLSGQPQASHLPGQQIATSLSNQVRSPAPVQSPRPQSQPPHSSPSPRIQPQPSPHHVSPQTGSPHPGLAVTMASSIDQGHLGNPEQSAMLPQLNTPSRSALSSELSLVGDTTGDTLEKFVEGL

Holding throughout (assay): affinity purification with mass spectrometry; HCT116 cells transiently transfected with amino or carboxyl terminally FLAG/HA-tagged HPV8 E6; common contaminants subtracted
In test [1] the target is N-terminally FLAG/HA-tagged HPV8 E6 (HPV8 (human papillomavirus type 8)) (UniProt P06428).
Test [2] deals with carboxyl terminally FLAG/HA epitope-tagged HPV8 E6 (HPV8 (human papillomavirus type 8)) (UniProt P06428).
The target in test [3] is amino or carboxyl terminally FLAG/HA epitope-tagged HPV8 E6 (AP/MS bait, end of the tag not told for the hit) (HPV8 (human papillomavirus type 8)) (UniProt P06428).
Test [4] has the same target. This is another data set of the same source.

Read-outs that look alike come from different tables or passages of the source. These are yes or no findings as the source states them, for the method shown. Binding seen in cells or lysates may run through a third protein. A yes stands for co-enrichment or nearness to the bait. Other partners may have been found.

In the case of “B-cell CLL/lymphoma 9-like (BCL9L) (from UniProt Q86UU0 1-1499)”, the binding result in test [1] and in test [2] was “binds” each time.

Turning to “cAMP response element binding protein (CREBBP) (from UniProt Q92793 1-2442)”, the binding entry in test [3] was “binds”.

B1: BCL9 (protein, UniProt O00512 1-1426)
chain: MHSSNPKVRSSPSGNTQSSPKSKQEVMVRPPTVMSPSGNPQLDSKFSNQGKQGGSASQSQPSPCDSKSGGHTPKALPGPGGSMGLKNGAGNGAKGKGKRERSISADSFDQRDPGTPNDDSDIKECNSADHIKSQDSQHTPHSMTPSNATAPRSSTPSHGQTTATEPTPAQKTPAKVVYVFSTEMANKAAEAVLKGQVETIVSFHIQNISNNKTERSTAPLNTQISALRNDPKPLPQQPPAPANQDQNSSQNTRLQPTPPIPAPAPKPAAPPRPLDRESPGVENKLIPSVGSPASSTPLPPDGTGPNSTPNNRAVTPVSQGSNSSSADPKAPPPPPVSSGEPPTLGENPDGLSQEQLEHRERSLQTLRDIQRMLFPDEKEFTGAQSGGPQQNPGVLDGPQKKPEGPIQAMMAQSQSLGKGPGPRTDVGAPFGPQGHRDVPFSPDEMVPPSMNSQSGTIGPDHLDHMTPEQIAWLKLQQEFYEEKRRKQEQVVVQQCSLQDMMVHQHGPRGVVRGPPPPYQMTPSEGWAPGGTEPFSDGINMPHSLPPRGMAPHPNMPGSQMRLPGFAGMINSEMEGPNVPNPASRPGLSGVSWPDDVPKIPDGRNFPPGQGIFSGPGRGERFPNPQGLSEEMFQQQLAEKQLGLPPGMAMEGIRPSMEMNRMIPGSQRHMEPGNNPIFPRIPVEGPLSPSRGDFPKGIPPQMGPGRELEFGMVPSGMKGDVNLNVNMGSNSQMIPQKMREAGAGPEEMLKLRPGGSDMLPAQQKMVPLPFGEHPQQEYGMGPRPFLPMSQGPGSNSGLRNLREPIGPDQRTNSRLSHMPPLPLNPSSNPTSLNTAPPVQRGLGRKPLDISVAGSQVHSPGINPLKSPTMHQVQSPMLGSPSGNLKSPQTPSQLAGMLAGPAAAASIKSPPVLGSAAASPVHLKSPSLPAPSPGWTSSPKPPLQSPGIPPNHKAPLTMASPAMLGNVESGGPPPPTASQPASVNIPGSLPSSTPYTMPPEPTLSQNPLSIMMSRMSKFAMPSSTPLYHDAIKTVASSDDDSPPARSPNLPSMNNMPGMGINTQNPRISGPNPVVPMPTLSPMGMTQPLSHSNQMPSPNAVGPNIPPHGVPMGPGLMSHNPIMGHGSQEPPMVPQGRMGFPQGFPPVQSPPQQVPFPHNGPSGGQGSFPGGMGFPGEGPLGRPSNLPQSSADAALCKPGGPGGPDSFTVLGNSMPSVFTDPDLQEVIRPGATGIPEFDLSRIIPSEKPSQTLQYFPRGEVPGRKQPQGPGPGFSHMQGMMGEQAPRMGLALPGMGGPGPVGTPDIPLGTAPSMPGHNPMRPPAFLQQGMMGPHHRMMSPAQSTMPGQPTLMSNPAAAVGMIPGKDRGPAGLYTHPGPVGSPGMMMSMQGMMGPQQNIMIPPQMRPRGMAADVGMGGFSQGPGNPGNMMF
On to B1, for which, in test [4], the binding result is “binds”.

B2: PYGO2 (protein, UniProt Q9BRQ0 1-406)
chain: MAASAPPPPDKLEGGGGPAPPPAPPSTGRKQGKAGLQMKSPEKKRRKSNTQGPAYSHLTEFAPPPTPMVDHLVASNPFEDDFGAPKVGVAAPPFLGSPVPFGGFRVQGGMAGQVPPGYSTGGGGGPQPLRRQPPPFPPNPMGPAFNMPPQGPGYPPPGNMNFPSQPFNQPLGQNFSPPSGQMMPGPVGGFGPMISPTMGQPPRAELGPPSLSQRFAQPGAPFGPSPLQRPGQGLPSLPPNTSPFPGPDPGFPGPGGEDGGKPLNPPASTAFPQEPHSGSPAAAVNGNQPSFPPNSSGRGGGTPDANSLAPPGKAGGGSGPQPPPGLVYPCGACRSEVNDDQDAILCEASCQKWFHRECTGMTESAYGLLTTEASAVWACDLCLKTKEIQSVYIREGMGQLVAANDG
In the case of B2, in test [4], the binding result is recorded as “binds”.
